PubChem BioAssay AID1224830 – NIAID, 2016

Screen: 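Genes whose knock-down alters the TNF-alpha reporter response to LPS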 (primary screen)
Cell system: human THP-1 monocytic leukaemia cells, TNF dual-luciferase reporter clone, PMA-differentiated to macrophage-like cells
Reagent: siRNA pool against human genes, 50 nM
Timing: LPS for 4 h, given about 3 days after siRNA transfection
Challenge: bacterial LPS (TLR4 ligand), 10 ng/ml
Detection: 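Ratio of firefly to renilla light, scaled to the plate median and expressed as a robust z-score per replicate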
Direction: TNF reporter robust z-score: higher = stronger TNF reporter response to LPS
Call rule: 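Each well counts as active if its z-score is over 2.8 or under -1.5; controls are left without a call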
The whole screen tested about 18,000 reagents; shown is an unselected part. In the full data, about 2,900 (16%) got an active call. 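Calls are made per well; low scores hint the gene aids the LPS response, high scores that it dampens it.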 Repeated entries: four replicate wells of each siRNA pool.

| gene knocked down | TNF reporter robust z-score | outcome |
| --- | --- | --- |
| AGTR2 | 2.89 | active |
| AGTR2 | 3.16 | active |
| AGTR2 | 3.85 | active |
| AGTR2 | 4.28 | active |
| DOC2B | -0.96 | inactive |
| DOC2B | -0.03 | inactive |
| DOC2B | -0.2 | inactive |
| DOC2B | 0.17 | inactive |
| PPM1F | -0.97 | inactive |
| PPM1F | -0.02 | inactive |
| PPM1F | 0.76 | inactive |
| PPM1F | 1.33 | inactive |
| FIGLA | 3.74 | active |
| FIGLA | 3.13 | active |
| FIGLA | -0.18 | inactive |
| FIGLA | -0.25 | inactive |
| SLC35G3 | -1.17 | inactive |
| SLC35G3 | -1.04 | inactive |
| SLC35G3 | -0.42 | inactive |
| SLC35G3 | -0.66 | inactive |
| HSD17B14 | 2.63 | inactive |
| HSD17B14 | 2.06 | inactive |
| HSD17B14 | 1.59 | inactive |
| HSD17B14 | 0.83 | inactive |
| AEN | -0.68 | inactive |
| AEN | -0.66 | inactive |
| AEN | -0.49 | inactive |
| AEN | -0.32 | inactive |
| HNRNPL | 1.2 | inactive |
| HNRNPL | 1.68 | inactive |
| HNRNPL | -0.56 | inactive |
| HNRNPL | 1.16 | inactive |
| CD8A | 0.85 | inactive |
| CD8A | 2.25 | inactive |
| CD8A | 1.45 | inactive |
| CD8A | 1.06 | inactive |
| PDPN | 0.33 | inactive |
| PDPN | -0.56 | inactive |
| PDPN | 0.62 | inactive |
| PDPN | 1.74 | inactive |
| LYRM2 | 0.09 | inactive |
| LYRM2 | 1.3 | inactive |
| LYRM2 | 0 | inactive |
| HLA-DRB4 | 10.8 | active |
| HLA-DRB4 | -0.52 | inactive |
| HLA-DRB4 | 0.25 | inactive |
| HLA-DRB4 | 1.32 | inactive |
| CES1 | 2.09 | inactive |
| CES1 | 2.45 | inactive |
| CES1 | 1.45 | inactive |
| CES1 | 2.22 | inactive |

Called active, of those listed so far:
| gene knocked down | TNF reporter robust z-score | outcome |
| --- | --- | --- |
| AGTR2 | 2.89 | active |
| AGTR2 | 3.16 | active |
| AGTR2 | 3.85 | active |
| AGTR2 | 4.28 | active |
| FIGLA | 3.74 | active |
| FIGLA | 3.13 | active |
| HLA-DRB4 | 10.8 | active |

Additional results:
| gene knocked down | TNF reporter robust z-score | outcome |
| --- | --- | --- |
| ZNF160 | 0.12 | inactive |
| ZNF160 | 0.14 | inactive |
| ZNF160 | 0.68 | inactive |
| ZNF160 | -0.95 | inactive |
| VTI1A | -1.05 | inactive |
| VTI1A | -1.12 | inactive |
| VTI1A | -1.32 | inactive |
| VTI1A | 0.05 | inactive |
| ZNF502 | -0.68 | inactive |
| ZNF502 | -0.47 | inactive |
| ZNF502 | -0.54 | inactive |
| ADAMTS7 | -0.07 | inactive |
| ADAMTS7 | 1.68 | inactive |
| ADAMTS7 | -0.73 | inactive |
| SSH1 | 0.06 | inactive |
| SSH1 | -0.26 | inactive |
| SSH1 | 0.41 | inactive |
| SSH1 | 0.14 | inactive |
| ZNF182 | -0.85 | inactive |
| ZNF182 | -0.98 | inactive |
| ZNF182 | -0.52 | inactive |
| OR7A10 | -0.33 | inactive |
| OR7A10 | 0.19 | inactive |
| OR7A10 | 0.3 | inactive |
| OR7A10 | -0.49 | inactive |
| ENDOG | -0.75 | inactive |
| ENDOG | 0.07 | inactive |
| ENDOG | -1.64 | active |
| ENDOG | -1.08 | inactive |
| DDX47 | 1.13 | inactive |
| DDX47 | 2.45 | inactive |
| DDX47 | 2.09 | inactive |
| DDX47 | 1.93 | inactive |
| ALDH1A2 | 0.9 | inactive |
| ALDH1A2 | 0.64 | inactive |
| ALDH1A2 | 0.72 | inactive |
| ALDH1A2 | 1.29 | inactive |
| CCNB3 | -0.09 | inactive |
| CCNB3 | 0.23 | inactive |
| CCNB3 | -0.31 | inactive |
| CCNB3 | -0.07 | inactive |
| GLRB | -0.15 | inactive |
| GLRB | 0.42 | inactive |
| GLRB | -0.33 | inactive |
| GLRB | 0.82 | inactive |
| STAG1 | -0.51 | inactive |
| STAG1 | -0.14 | inactive |
| STAG1 | -0.31 | inactive |
| STAG1 | 0.12 | inactive |
| GCC1 | 0.06 | inactive |
| GCC1 | 1.62 | inactive |
| GCC1 | 0.48 | inactive |
| GCC1 | 0.89 | inactive |
| OR9K2 | 3.03 | active |
| OR9K2 | -0.65 | inactive |
| OR9K2 | 0.17 | inactive |
| OR9K2 | 1.26 | inactive |
| ATP6AP1 | -1.49 | inactive |
| ATP6AP1 | -1.26 | inactive |
| ATP6AP1 | -1.32 | inactive |
| ATP6AP1 | -1.48 | inactive |
